The supplement of paper PMC8728848
Some of the results follow.

Experiments:
Assay in all cases: glycan array binding signal (z-score within array); higher = stronger binding
Details in all cases: glycan notation: IUPAC condensed, linker removed
[1] = target: Neu5Ac(a2-3)Gal(b1-4)Glc
In short: (§1)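 Glycan array data were curated from 3228 arrays in the Consortium for Functional Glycomics database and kept only where the protein sequence was available. Glycan names were converted to IUPAC-condensed notation, and columns mapping to the same glycan were averaged. The binding signal is a within-array Z-score, averaged across arrays of the same protein sequence at different concentrations or buffers and across linkers. Negative Z-scores can be read as non-binding.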

[2] = target: Neu5Ac(a2-3)Gal(b1-4)GlcNAc
In short: as §1

[3] = target: Neu5Ac(a2-3)Gal(b1-4)GlcNAc(b1-3)Gal(b1-3)GlcNAc
In short: as §1

[4] = target: Neu5Ac(a2-3)Gal(b1-4)GlcNAc(b1-3)Gal(b1-4)GlcNAc
In short: as §1

[5] = target: Neu5Ac(a2-3)Gal(b1-4)GlcNAc(b1-3)Gal(b1-4)GlcNAc(b1-3)Gal(b1-4)GlcNAc
In short: as §1

[6] = target: Neu5Ac(a2-3)Gal(b1-4)GlcNAc(b1-3)Gal(b1-4)[Fuc(a1-3)]GlcNAc
In short: as §1

[7] = target: Neu5Ac(a2-3)Gal(b1-4)GlcNAc(b1-6)[Gal(b1-3)]GalNAc
In short: as §1

[8] = target: Neu5Ac(a2-3)Gal(b1-4)GlcNAc6S
In short: as §1

[9] = target: Neu5Ac(a2-3)Gal(b1-4)[Fuc(a1-3)]GlcNAc
In short: as §1

[10] = target: Neu5Ac(a2-3)Gal(b1-4)[Fuc(a1-3)]GlcNAc(b1-3)Gal
In short: as §1

[11] = target: Neu5Ac(a2-3)Gal(b1-4)[Fuc(a1-3)]GlcNAc(b1-3)Gal(b1-4)GlcNAc
In short: as §1

[12] = target: Neu5Ac(a2-3)Gal(b1-4)[Fuc(a1-3)]GlcNAc(b1-3)Gal(b1-4)[Fuc(a1-3)]GlcNAc(b1-3)Gal(b1-4)[Fuc(a1-3)]GlcNAc
In short: as §1

[13] = target: Neu5Ac(a2-3)Gal(b1-4)[Fuc(a1-3)]GlcNAc6S
In short: as §1

[14] = target: Neu5Ac(a2-3)Gal6S(b1-4)GlcNAc
In short: as §1

[15] = target: Neu5Ac(a2-3)Gal6S(b1-4)[Fuc(a1-3)]GlcNAc
In short: as §1

[16] = target: Neu5Ac(a2-3)GalNAc
In short: as §1

[17] = target: Neu5Ac(a2-3)GalNAc(b1-4)GlcNAc
In short: as §1

[18] = target: Neu5Ac(a2-3)[GalNAc(b1-4)]Gal(b1-4)Glc
In short: as §1

[19] = target: Neu5Ac(a2-3)[GalNAc(b1-4)]Gal(b1-4)GlcNAc
In short: as §1

[20] = target: Neu5Ac(a2-3)[Neu5Ac(a2-6)]GalNAc
In short: as §1

[21] = target: Neu5Ac(a2-6)Gal
In short: as §1

[22] = target: Neu5Ac(a2-6)Gal(b1-4)Glc
In short: as §1

[23] = target: Neu5Ac(a2-6)Gal(b1-4)GlcNAc
In short: as §1

[24] = target: Neu5Ac(a2-6)Gal(b1-4)GlcNAc(b1-2)Man(a1-3)[Neu5Ac(a2-6)Gal(b1-4)GlcNAc(b1-2)Man(a1-6)]Man(b1-4)GlcNAc(b1-4)GlcNAc
In short: as §1

[25] = target: Neu5Ac(a2-6)Gal(b1-4)GlcNAc(b1-3)Gal(b1-4)GlcNAc
In short: as §1

[26] = target: Neu5Ac(a2-6)Gal(b1-4)GlcNAc(b1-3)Gal(b1-4)[Fuc(a1-3)]GlcNAc(b1-3)Gal(b1-4)[Fuc(a1-3)]GlcNAc
In short: as §1

[27] = target: Neu5Ac(a2-6)Gal(b1-4)GlcNAc6S
In short: as §1

[28] = target: Neu5Ac(a2-6)GalNAc
In short: as §1

[29] = target: Neu5Ac(a2-6)GalNAc(b1-4)GlcNAc
In short: as §1

[30] = target: Neu5Ac(a2-8)Neu5Ac
In short: as §1

[31] = target: Neu5Ac(a2-8)Neu5Ac(a2-3)Gal(b1-4)Glc
In short: as §1

[32] = target: Neu5Ac(a2-8)Neu5Ac(a2-3)[GalNAc(b1-4)]Gal(b1-4)Glc
In short: as §1

[33] = target: Neu5Ac(a2-8)Neu5Ac(a2-8)Neu5Ac
In short: as §1

[34] = target: Neu5Ac(a2-8)Neu5Ac(a2-8)Neu5Ac(a2-3)Gal(b1-4)Glc
In short: as §1

[35] = target: Neu5Ac(a2-8)Neu5Ac(a2-8)Neu5Ac(a2-3)[GalNAc(b1-4)]Gal(b1-4)Glc
In short: as §1

[36] = target: Neu5Ac(a2-8)Neu5Ac(a2-8)Neu5Ac(a2-8)Neu5Ac(a2-3)[GalNAc(b1-4)]Gal(b1-4)Glc
In short: as §1

[37] = target: Neu5Ac(b2-6)Gal(b1-4)GlcNAc
In short: as §1

[38] = target: Neu5Ac(b2-6)GalNAc
In short: as §1

[39] = target: Neu5Ac9Ac(a2-6)Gal(b1-4)GlcNAc
In short: as §1

[40] = target: Neu5Gc(a2-3)Gal(b1-3)GlcNAc
In short: as §1

[41] = target: Neu5Gc(a2-3)Gal(b1-3)[Fuc(a1-4)]GlcNAc
In short: as §1

[42] = target: Neu5Gc(a2-3)Gal(b1-4)Glc
In short: as §1

[43] = target: Neu5Gc(a2-3)Gal(b1-4)GlcNAc
In short: as §1

[44] = target: Neu5Gc(a2-3)Gal(b1-4)[Fuc(a1-3)]GlcNAc
In short: as §1

[45] = target: Neu5Gc(a2-6)Gal(b1-4)GlcNAc
In short: as §1

[46] = target: Neu5Gc(a2-6)GalNAc
In short: as §1

B1: CD23 (Homo sapiens) (protein)
chain: MELQVSSGFVCNTCPEKWINFQRKCYYFGKGTKQWVHARYACDDMEGQLVSIHSPEEQDFLTKHASHTGSWIGLRNLDLKGEFIWVDGSHVDYSNWAPGEPTSRSQGEDCVMMRGSGRWNDAFCDRKLGAWVCDRLATCTPPASEGSAESMGPDSRPDPDGRLPTPSAPLHS
- glycan array binding signal (z-score) [1]: -0.51
- glycan array binding signal (z-score) [2]: -0.071
- glycan array binding signal (z-score) [3]: -0.539
- glycan array binding signal (z-score) [4]: -0.528
- glycan array binding signal (z-score) [5]: -0.961
- glycan array binding signal (z-score) [6]: -0.233
- glycan array binding signal (z-score) [7]: 0.066
- glycan array binding signal (z-score) [8]: -0.517
- glycan array binding signal (z-score) [9]: 0.034
- glycan array binding signal (z-score) [10]: -0.435
- glycan array binding signal (z-score) [11]: 1.15
- glycan array binding signal (z-score) [12]: 0.207
- glycan array binding signal (z-score) [13]: -0.09
- glycan array binding signal (z-score) [14]: -0.571
- glycan array binding signal (z-score) [15]: 0.332
- glycan array binding signal (z-score) [16]: 0.07
- glycan array binding signal (z-score) [17]: 0.011
- glycan array binding signal (z-score) [18]: -0.423
- glycan array binding signal (z-score) [19]: -0.147
- glycan array binding signal (z-score) [20]: -0.115
- glycan array binding signal (z-score) [21]: 0.034
- glycan array binding signal (z-score) [22]: -0.226
- glycan array binding signal (z-score) [23]: -0.334
- glycan array binding signal (z-score) [24]: 0.151
- glycan array binding signal (z-score) [25]: 0.383
- glycan array binding signal (z-score) [26]: 0.322
- glycan array binding signal (z-score) [27]: -0.039
- glycan array binding signal (z-score) [28]: -0.532
- glycan array binding signal (z-score) [29]: -0.391
- glycan array binding signal (z-score) [30]: -0.328
- glycan array binding signal (z-score) [31]: -0.319
- glycan array binding signal (z-score) [32]: -0.138
- glycan array binding signal (z-score) [33]: 0.201
- glycan array binding signal (z-score) [34]: -0.028
- glycan array binding signal (z-score) [35]: -0.367
- glycan array binding signal (z-score) [36]: -0.043
- glycan array binding signal (z-score) [37]: -0.091
- glycan array binding signal (z-score) [38]: -0.582
- glycan array binding signal (z-score) [39]: 1.43
- glycan array binding signal (z-score) [40]: 0.389
- glycan array binding signal (z-score) [41]: 0.077
- glycan array binding signal (z-score) [42]: -0.171
- glycan array binding signal (z-score) [43]: -0.054
- glycan array binding signal (z-score) [44]: 0.007
- glycan array binding signal (z-score) [45]: -0.645
- glycan array binding signal (z-score) [46]: -0.117
